Results published in paper PMC4524557 (RSC advances, 2015).

System: Escherichia coli ATCC 25922
Test: MIC determination
Format: cell-based
Conditions: ATCC25922, read-out: MIC EC

## CN[C@H](CC(C)C)C(=O)N[C@H]1C(=O)N[C@@H](CC(N)=O)C(=O)N[C@H]2C(=O)N[C@H]3C(=O)N[C@H](C(=O)N[C@H](C(=O)O)c4cc(O)cc(O)c4-c4cc3ccc4O)[C@H](O)c3ccc(c(Cl)c3)Oc3cc2cc(c3O[C@@H]2O[C@H](CO)[C@@H](O)[C@H](O)[C@H]2O[C@H]2C[C@](C)(N)[C@H](O)[C@H](C)O2)Oc2ccc(cc2Cl)[C@H]1O [Vancomycin]
  MIC: > 25 µM
